In patent publication US6610657B1, “Alkyl peptide amides and applications” (Promega Corporation, priority 1996, dated 2003):
Part of at least one peptide drawing is inferred or uncertain, most often the ends.

Legend:
monkey ejaculated sperm = assay: Monkey sperm motility; assay type: cell-based, rhesus monkey; conditions: FIGS. 11 and 12
Experimental: (§1) Sperm Preparation. Testes from mature bulls with intact tunica were obtained from a local slaughterhouse and sperm from caput or caudal epididymis were isolated and washed as previously described (Vijayaraghavan et al., Biol. Reprod. 32:489-500, 1985). The sperm were resuspended in buffer A (120 mM NaCl, 10 mM KCl, 10 mM Tris[hydroxymethyl]aminomethane (TRIS), pH 7.4) supplemented with 10 mM glucose and 10 mg/ml bovine serum albumin (BSA) for motility measurements. Monkey semen was obtained by electro-ejaculation and processed by procedures previously reported (Smith et al., Biol. Reprod. 54:719-727, 1996). Human semen samples were obtained from a fertility clinic at the Oregon Health Sciences University.
Sperm Motility Measurement. Head motility parameters were determined as previously described (Vijayaraghavan et al., Biol. Reprod. 54:709-718, 1996; Stephens et al., Biol. Reprod. 38:577-586, 1988). A 3-4 μL aliquot of sperm suspension (5×10^7/ml) was loaded onto a counting chamber at 37° C. After bulk fluid movement had subsided, six different locations on the slide were recorded. The videotaped segments were analyzed by a computerized image-analysis system (CASMA) as previously described (Vijayaraghavan et al., Biol. Reprod. 54:709-718, 1996; Stephens et al., Biol. Reprod. 38:577-586, 1988). This computer system measured several parameters of head motion, including forward motility. […]

[1] = test system: bovine caudal epididymal sperm; assay: Bovine sperm motility (CASMA, forward motility index); assay type: cell-based
Experimental: as §1
Sperm Motility Measurement. Head motility parameters were determined as previously described (Vijayaraghavan et al., Biol. Reprod. 54:709-718, 1996; Stephens et al., Biol. Reprod. 38:577-586, 1988). A 3-4 μL aliquot of sperm suspension (5×10^7/ml) was loaded onto a counting chamber at 37° C. After bulk fluid movement had subsided, six different locations on the slide were recorded. The videotaped segments were analyzed by a computerized image-analysis system (CASMA) as previously described (Vijayaraghavan et al., Biol. Reprod. 54:709-718, 1996; Stephens et al., Biol. Reprod. 38:577-586, 1988). This computer system measured several parameters of head motion, including forward motility. The forward Motility Index (FMI) was used as the measure of motility. FMI is a product of percent motile (%M, percent of sperm moving at velocity greater than […]) and average velocity (Va, the five-point smoothed average of the head positions through analysis of at least twenty frames).

RII binding to AKAP 110 = assay: RII overlay assay on bovine sperm AKAP; conditions: 20 μM peptide, densitometric scanning, FIG. 6
From the text: Western blotting and overlay assays. The overlay procedure is a modified Western blot procedure. Proteins were separated by SDS-polyacrylamide gel electrophoresis (SDS-PAGE) and transferred to a nylon membrane (Immobilon). After treatment with Blotto (Protein Methods, Bollag and Edelstein, eds., Wiley-Liss, New York, 1991) to prevent non-specific binding, radiolabelled RIIα or RIIβ probes were applied (Carr and Scott, Trends Biochem. Sci. 17:246-249, 1992). Recombinant RIIα was produced as previously described (Carr et al., J. Biol. Chem. 266:14188-14192, 1991; Carr et al., J. Biol. Chem. 267:13376-13382, 1992). RIIα and RIIβ were gifts from Dr. John Scott, Oregon Health Sciences University, Portland, Oreg. Two different variations of the overlay assay were used. In the first variation, recombinant RII radiolabeled by incubation with the catalytic subunit of PKA and γ^32P-ATP was used. After separation from free γ^32P-ATP, the ^32P-labeled RII (500,000 CPM/10 ml blotto) was incubated with the blocked blot for four hours followed by washing and autoradiography. […]
RII overlays were performed in the absence (lane 1) or presence of 20 μM Ht31, s-Ht31, or s-Ht31-P (lanes 2, 3 or 4, respectively). Addition of the three peptide species inhibited RII binding to AKAP110 by 100%, 85% and 0%, respectively, as determined by densitometric scanning analysis.

human ejaculated sperm = assay: Human sperm motility; assay type: cell-based; conditions: FIG. 13, 100 μM, 15 min

With CCCCCCCCCCCCCCCCCC(=O)N[C@@H](CC(=O)O)C(=O)N[C@@H](CC(C)C)C(=O)N[C@H](C(=O)N[C@@H](CCC(=O)O)C(=O)N[C@@H](CCC(=O)O)C(=O)N[C@@H](C)C(=O)N[C@@H](C)C(=O)N[C@@H](CO)C(=O)N[C@@H](CCCNC(=N)N)C(=O)N[C@H](C(=O)N[C@H](C(=O)N[C@@H](CC(=O)O)C(=O)N[C@@H](C)C(=O)N[C@H](C(=O)N[C@H](C(=O)N[C@@H](CCC(=O)O)C(=O)N[C@@H](CCC(N)=O)C(=O)N[C@H](C(=O)N[C@@H](CCCCN)C(=O)N[C@@H](C)C(=O)N[C@@H](C)C(=O)NCC(=O)N[C@@H](C)C(=O)N[C@@H](Cc1ccc(O)cc1)C(=O)O)C(C)C)[C@@H](C)CC)C(C)C)C(C)C)[C@@H](C)CC)[C@@H](C)CC [s-Ht31] the “Effect on sperm motility, undiluted rhesus monkey semen” value (monkey ejaculated sperm) was “reduction in sperm motility”, the “Inhibition of motility in basal and bicarbonate-supplemented media” value ([1]; 10 μM, 2 mM calcium, with or without 50 mM bicarbonate, FIG. 10) was “equally effective in inhibiting motility in both media” and the “Effect on motility over time” value ([1]; 5 to 50 μM, within three to five minutes after treatment, buffer A, FIG. 7) was “Complete arrest of motility”. The IC50 ([1]; motility measured five minutes post-treatment, FIG. 8, read-out: Concentration needed to produce 50% inhibition of motility) was about 1000 nM, the “Inhibition of RII binding to AKAP110” value (RII binding to AKAP 110) was 85% and the “Effect on sperm motility, human ejaculated semen” value (human ejaculated sperm) was “reduction in sperm motility”.
